Results from patent publication US5863899A (priority 1994, dated 1999).
At least one peptide structure holds a part that was inferred or is arguable (an end, a ring closure or a residue). Square brackets hold non-standard residues; d marks the D form. Peptide text beside a SMILES is read from it. * marks the point of attachment. X9 = COc1ccc2c3c1O[C@H]1C(NCCSC4CC(=O)N(CCCCCCN5C(=O)CC(*)C5=O)C4=O)CC[C@@]4(O)[C@@H](C2)N(C)CC[C@]314; X1 = CN1CC[C@]23c4c5ccc(O)c4O[C@H]2C(NCCSC2CC(=O)N(CCCCCCN4C(=O)CC(*)C4=O)C2=O)CC[C@@]3(O)[C@H]1C5; X7 = COc1ccc2c(c1)c(CC(=O)OCCCCCCN1C(=O)CC(*)C1=O)c(C)n2C(=O)c1ccc(Cl)cc1; Hyp = O=C(O)[C@@H]1C[C@@H](O)CN1

The chains behind the UniProt entries cited, without tags or fusion partners. Residues count along the entry.
UniProt A0ACM8Q262, 1-400: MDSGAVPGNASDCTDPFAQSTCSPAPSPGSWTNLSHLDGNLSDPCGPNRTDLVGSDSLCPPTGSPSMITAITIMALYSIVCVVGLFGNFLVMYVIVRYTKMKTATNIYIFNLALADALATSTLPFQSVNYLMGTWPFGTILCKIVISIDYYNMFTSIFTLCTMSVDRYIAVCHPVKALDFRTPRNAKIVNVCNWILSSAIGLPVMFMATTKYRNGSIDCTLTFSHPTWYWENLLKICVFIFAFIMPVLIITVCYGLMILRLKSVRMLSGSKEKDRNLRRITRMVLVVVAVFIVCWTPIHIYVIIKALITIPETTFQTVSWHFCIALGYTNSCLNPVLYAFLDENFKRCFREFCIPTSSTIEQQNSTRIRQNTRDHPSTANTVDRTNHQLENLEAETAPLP

What was measured:
[1] = tested on: mice injected in the hind limb foot pad with formalin; assay: mouse formalin test (model of inflammatory and neurogenic pain); format: in vivo
Procedure: In order to test the activity of these compounds in vivo, a model of inflammatory and neurogenic pain was used. This model measures the behavioral responses of mice injected in the hind limb foot pad with 50 ul of formalin. Control mice (open circles) show a characteristic bi-phasic response to the injected formalin wherein there is a short lasting initial response followed by a quiescent period which is then followed by a sustained period of hind limb licking. The licking behavior is interpreted to mean that the limb is irritated and painful. The greater the time spent licking, the more painful the stimulus.

[2] = tested on: rat lung parenchymal strips (cyclooxygenase dependent contraction); assay: rat lung parenchymal strips challenged with arachidonic acid; format: cell-based; details: contraction in response to exogenously applied arachidonic acid
Text: As mentioned previously, for the COI to work it may need to be dissociated from the BKAn so as to allow for its intracellular penetration. Therefore, in order to evaluate the functional activity of a BKAn/COI heterodimer, CP-0460 was exposed to rat lung parenchymal strips which were then challenged with arachidonic acid. This tissue is known to contain both non-specific esterase activity as well as to convert arachidonic acid to thromboxane (via a cyclooxygenase dependent pathway) which is then ultimately responsible for the smooth muscle contraction observed in this assay.

BK2-receptor = target: T1, BK2-receptor (Rattus norvegicus, UniProt P25023); details: bradykinin induced uterine contraction
T1 sequence (P25023 1-396): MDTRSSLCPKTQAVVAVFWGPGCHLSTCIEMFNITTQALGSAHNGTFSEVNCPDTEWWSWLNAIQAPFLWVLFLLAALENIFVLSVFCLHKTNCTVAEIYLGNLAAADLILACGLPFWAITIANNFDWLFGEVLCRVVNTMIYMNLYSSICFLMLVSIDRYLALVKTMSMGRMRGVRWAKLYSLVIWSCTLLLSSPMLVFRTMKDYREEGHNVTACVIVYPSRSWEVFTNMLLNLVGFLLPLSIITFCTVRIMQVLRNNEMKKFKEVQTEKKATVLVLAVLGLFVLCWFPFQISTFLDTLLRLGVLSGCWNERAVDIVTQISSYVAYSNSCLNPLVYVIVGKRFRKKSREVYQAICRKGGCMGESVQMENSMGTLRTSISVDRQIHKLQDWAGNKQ

mu-opiate receptor = mu-opiate receptor (Cavia porcellus, UniProt A0ACM8Q262); assay: electrically stimulated guinea pig ileum assay; format: cell-based; details: in vitro mu-opiate receptor agonist activity

CC(C)C[C@H](NC(=O)[C@@H](Cc1ccccc1)NC(=O)[C@H](CSC1CC(=O)N(CCCCCCN2C(=O)CC(SCCNC3CC[C@@]4(O)[C@H]5Cc6ccc(O)c7c6[C@@]4(CCN5C)[C@H]3O7)C2=O)C1=O)NC(=O)[C@H](Cc1ccccc1)NC(=O)CNC(=O)[C@@H]1C[C@@H](O)CN1C(=O)[C@@H]1CCCN1C(=O)[C@H](CCCNC(=N)N)NC(=O)[C@H](N)CCCNC(=N)N)C(=O)N[C@@H](CCCNC(=N)N)C(=O)O (some centres unmarked) [CP-0494] (H-[dR]RP[Hyp]GFC(X1)[dF]LR-OH)
effect on licking behavior (both phases) in the formalin test ([1]; 50 ul formalin in hind limb foot pad): blocks both phases of the pain response | dose at which both phases of the pain response are blocked ([1]; mouse formalin test): 0.1 µmol/kg

COc1ccc2c(c1)c(CC(=O)OCCCCCCN1C(=O)CC(SC[C@H](NC(=O)[C@H](Cc3ccccc3)NC(=O)CNC(=O)[C@@H]3C[C@@H](O)CN3C(=O)[C@@H]3CCCN3C(=O)[C@H](CCCNC(=N)N)NC(=O)[C@H](N)CCCNC(=N)N)C(=O)N[C@H](Cc3ccccc3)C(=O)N[C@@H](CC(C)C)C(=O)N[C@@H](CCCNC(=N)N)C(=O)O)C1=O)c(C)n2C(=O)c1ccc(Cl)cc1 (some centres unmarked) [CP-0460] (H-[dR]RP[Hyp]GFC(X7)[dF]LR-OH)
log dose ratio shift [2]: 1.029+/-0.042 | type of bradykinin antagonism in rat uterus (BK2-receptor): "pseudo-non-competitive" antagonist

COc1ccc2c3c1O[C@H]1C(NCCSC4CC(=O)N(CCCCCCN5C(=O)CC(SC[C@H](NC(=O)[C@H](Cc6ccccc6)NC(=O)CNC(=O)[C@@H]6C[C@@H](O)CN6C(=O)[C@@H]6CCCN6C(=O)[C@H](CCCNC(=N)N)NC(=O)[C@H](N)CCCNC(=N)N)C(=O)N[C@H](Cc6ccccc6)C(=O)N[C@@H](CC(C)C)C(=O)N[C@@H](CCCNC(=N)N)C(=O)O)C5=O)C4=O)CC[C@@]4(O)[C@@H](C2)N(C)CC[C@]314 (some centres unmarked) [CP-0477] (H-[dR]RP[Hyp]GFC(X9)[dF]LR-OH)
activity in guinea pig ileum assay (mu-opiate receptor): neither oxycodone nor the heterodimers derived from oxycodone (CP-0477 and CP-0488) showed any activity
